Where a name gives a salt, the structure may show the parent alone. This list holds what a sample rich in hits left over.
Experiments:
Conditions in all cases: 20 µM
[1] = tested on: Salmonella enterica typhimurium; test: growth AUC normalised to DMSO control (fraction of control); higher = less growth inhibition, active = hit call of the paper
Procedure, shortened: (§1)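 Three biological replicates were carried out, with OD578 read hourly for 24 h. Before inoculation at a starting OD578 of 0.01, pathogens were passaged anaerobically twice; plates were pre-reduced mGAM containing 20 μM compound and 1% DMSO, sealed with breathable membranes, and the Haemophilus parainfluenzae medium carried added hemin and NAD. Area under each growth curve was calculated by the trapezoidal rule up to the exponential-to-stationary transition and normalised to DMSO controls on the same plate.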

Shigella flexneri = test: as above
Procedure, shortened: as §1

Vibrio cholerae = test: as above
Procedure, shortened: as §1

[2] = tested on: Yersinia pseudotuberculosis; test: as above
Procedure, shortened: as §1

P. vulgatus RND KO = test: growth AUC normalised to DMSO control (median) (fraction of control); higher = less growth inhibition, active = hit call of the paper
Procedure, shortened: (§2)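 For normalised area under the curve, growth curves were truncated at entry into stationary phase, integrated by the trapezoidal rule and divided against vehicle wells on the same plate. The curves came from strains passaged twice overnight without oxygen and then grown in mGAM in 96-well plates at a starting OD578 of 0.01. Each well held an approved-drug library compound at 20 μM with 1% DMSO, and OD578 was read hourly for 24 h in an anaerobic incubator. Values are medians of three biological replicates.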

P. vulgatus WT = test: as above
Procedure, shortened: as §2

[3] = tested on: S. enterica typhimurium WT; test: as above
Procedure, shortened: as §2

[4] = tested on: S. enterica typhimurium tolC KO; test: as above
Procedure, shortened: as §2

Measured: growth AUC normalised to DMSO control
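Throughout, for growth AUC normalised to DMSO control (median): active when median AUC fell below 0.1.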

CN1[C@@H]2CC[C@H]1CC(OC(=O)C(O)c1ccccc1)C2 (mixture of isomers) [(R,S) Homatropine hydrobromide]
inactive: [1] 1.01 | Shigella flexneri 1 | Vibrio cholerae 1.01 | [2] 1.01 | P. vulgatus RND KO 0.998 | P. vulgatus WT 0.997 | [3] 1.02 | [4] 1.01

CCC(C)C(C(=O)OCC[N+](C)(CC)CC)c1ccccc1 (configuration not stated) [Valethamate bromide]
inactive: P. vulgatus RND KO 0.997 | P. vulgatus WT 0.987 | [3] 1.01 | [4] 0.989
